{
  "sequences": {"note": "By UniProt entry, the sequences of proteins in these tests, tags left out. Where a name states a change or a piece, a line headed by the entry shows the natural chain unless it says otherwise.", "UniProt P05556": "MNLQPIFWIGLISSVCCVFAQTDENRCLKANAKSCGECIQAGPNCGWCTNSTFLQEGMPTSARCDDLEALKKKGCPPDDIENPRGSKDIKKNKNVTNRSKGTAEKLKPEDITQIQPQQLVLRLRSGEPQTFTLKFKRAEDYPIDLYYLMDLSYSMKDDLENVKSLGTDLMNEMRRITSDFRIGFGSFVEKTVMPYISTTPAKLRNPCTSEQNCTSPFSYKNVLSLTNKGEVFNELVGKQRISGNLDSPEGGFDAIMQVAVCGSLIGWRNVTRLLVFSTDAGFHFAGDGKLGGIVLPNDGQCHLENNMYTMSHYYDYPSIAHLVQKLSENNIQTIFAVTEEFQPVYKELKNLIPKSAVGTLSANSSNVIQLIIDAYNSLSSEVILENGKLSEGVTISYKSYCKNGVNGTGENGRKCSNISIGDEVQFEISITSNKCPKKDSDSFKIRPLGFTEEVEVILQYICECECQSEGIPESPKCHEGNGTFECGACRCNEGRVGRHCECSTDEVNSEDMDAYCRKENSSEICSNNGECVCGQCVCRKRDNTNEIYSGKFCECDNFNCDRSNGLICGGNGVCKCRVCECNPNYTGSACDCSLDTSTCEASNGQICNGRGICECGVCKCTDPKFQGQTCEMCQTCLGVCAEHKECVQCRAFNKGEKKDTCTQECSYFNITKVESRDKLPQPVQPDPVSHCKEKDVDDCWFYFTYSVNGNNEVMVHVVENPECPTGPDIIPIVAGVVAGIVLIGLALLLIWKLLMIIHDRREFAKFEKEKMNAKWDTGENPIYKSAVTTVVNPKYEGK"},
  "source": "paper PMC12291482",
  "target": "T1, Melanoma cell adhesion molecule (MCAM) (UniProt P43121)",
  "T1 sequence": "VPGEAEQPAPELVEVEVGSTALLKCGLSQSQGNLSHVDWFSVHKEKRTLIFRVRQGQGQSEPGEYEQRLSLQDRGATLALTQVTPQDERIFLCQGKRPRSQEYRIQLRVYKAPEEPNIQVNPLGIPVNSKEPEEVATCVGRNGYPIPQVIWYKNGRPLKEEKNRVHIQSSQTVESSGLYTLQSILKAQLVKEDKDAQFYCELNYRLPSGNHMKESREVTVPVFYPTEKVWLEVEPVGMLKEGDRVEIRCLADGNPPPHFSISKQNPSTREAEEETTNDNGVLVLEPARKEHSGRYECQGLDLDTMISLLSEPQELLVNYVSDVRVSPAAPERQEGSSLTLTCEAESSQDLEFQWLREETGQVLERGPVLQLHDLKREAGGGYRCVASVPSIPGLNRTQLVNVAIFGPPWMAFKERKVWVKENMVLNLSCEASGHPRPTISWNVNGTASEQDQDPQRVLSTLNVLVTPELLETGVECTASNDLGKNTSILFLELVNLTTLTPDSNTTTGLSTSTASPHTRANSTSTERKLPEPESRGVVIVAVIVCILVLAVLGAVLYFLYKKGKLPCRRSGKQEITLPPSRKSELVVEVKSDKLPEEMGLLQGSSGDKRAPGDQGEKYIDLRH",
  "test": "co-IP; HCC827 cells; magnetic beads conjugated with FLAG and IgG, 4 °C overnight; bound proteins analysed by SDS-PAGE and Western blotting",
  "note": "These are yes or no findings as the source states them, for the method shown. Binding seen in cells or lysates may run through a third protein. Some results given as binding are weak or reduced against the parent protein; the word gives no strength.",
  "data": [
    {"substance": "Integrin β1 (from UniProt P05556 21-798)", "values": [
      {"measurement": "binding", "value": "binds"}
    ]}
  ]
}
